This assay is described as follows: qHTS Assay for Lipid Storage Modulators in Drosophila S3 Cells.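 For cell number change: cells counted by Cell Tracker Red CMTPX staining in the red channel.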 To be noted: BODIPY lipid droplet fluorescence, 18-24 h; for cell number change: measured here: cell count max response, cells fed with added oleic acid. Put shortly:
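Drosophila S3 cells got compounds at several concentrations plus oleic acid (400 uM solution). Laser-scanning cytometry with 488 nm excitation read lipid droplets at 500-530 nm and cells at 575-640 nm. Percent activity was relative to 20 uM Triacsin C.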

[1] abbreviates: measured here: lipid fluorescence (Fed channel) AC50, cells fed with added oleic acid.
Where [2] appears, read: measured here: cell number channel AC50, cells fed with added oleic acid.

SMILES strings stand for the structures. Where “and” joins values, the source holds several entries; their conditions need not be identical. Identical values can stand only once. This is one part of the list. These are further read-outs of the screen, such as a control signal, another cell line or another target. No call is given for them. Compounds called inactive in the main read-out are mostly missing here. Words in brackets tell the shape of the fitted curve; partial curves, single points and poor fits give uncertain potencies.

Take `O=C(CN1CCOCCOCCOCC1)Nc1ccccc1`: the cell number change turned out to be 2.32%. For the same molecule, the AC50 under setting [1] was 1.16 µM [falling, full curve].

As to `Cc1noc(C)c1-c1ccc2ncnc(NCC3CCCCN3C)c2c1` (stereo not given), the cell number change is -10.5%.

Regarding `O=C(CCNS(=O)(=O)c1ccccc1)N1CCCC1`, the cell number change is 28.3%. Also, the AC50 under setting [1] is 32.6 µM [rising, partial curve, poor fit].

As for `O=C(COC(=O)Cc1ccc(F)cc1)NC1CCCCC1`, the cell number change was 1.75%. For the same molecule, the AC50 under setting [1] was 0.00461 µM [falling, full curve, poor fit].

As for `COc1ccc(-c2cc(=O)oc3cc(OC(=O)C4CCCCC4)ccc23)cc1`, the cell number change was 10.8%. For the same molecule, the AC50 under setting [1] is 0.082 µM [falling, partial curve, poor fit].

As for `COc1ccc(F)cc1S(=O)(=O)n1cc(C)nc1-c1ccccc1`, the cell number change was found to be 2.23%. Further, the AC50 under setting [1] is 0.00411 µM [falling, full curve, poor fit].

Take `Cc1ccc(-c2nnc(SCC(=O)N/N=C/c3ccc(C(=O)O)cc3)n2C2CCCCC2)cc1`: the cell number change amounted to 8.06%. The concentration at half-maximal activity (AC50) under setting [1] was 0.00731 µM [rising, full curve, poor fit].

On to `Cc1ccc(S(=O)(=O)NC(C)(C)CSc2ncccn2)cc1`, for which the cell number change was -23.5%. Under setting [1], the AC50 is 29.1 µM [falling, partial curve, poor fit].

Regarding `Cc1nc2ccc(NS(=O)(=O)c3ccccc3Cl)cc2s1`, the cell number change is -20.6%. The AC50 under setting [1] was 4.61 µM [rising, single point].

In the case of `Cc1nnc(SCC(=O)n2c3c(c4ccccc42)CCCC3)s1`, the cell number change was found to be 34.2%. The AC50 under setting [2] is 1.16 µM [rising, full curve]. Also, the half-maximal activity concentration (AC50) under setting [1] is 0.291 µM [rising, partial curve].

Regarding `C/C=C/c1ccc(OCCCCN(C)Cc2ccccc2)c(OC)c1`, the cell number change was 19.6%.

In the case of `CSc1ccc(CN2CCN(C(=O)CC(C)C)CC2)cc1`, the cell number change turned out to be 13.5%. The concentration at half-maximal activity (AC50) under setting [2] was 1.84 µM [rising, partial curve, poor fit]. Also, the AC50 under setting [1] was 0.116 µM [falling, full curve].

With `CCCNC(=S)N1CCCC(c2nc3ccccc3[nH]2)C1` (stereo not given), the cell number change is 56.8%. Under setting [2], the half-maximal activity concentration (AC50) is 10.3 µM [rising, partial curve]. Besides, the AC50 under setting [1] was 6.51 µM [falling, single point].

Turning to `CC(C)c1ccc(/C=N/NC(=O)CCNC(=O)c2ccccc2)cc1`, the cell number change worked out at 2.5%. For the same molecule, the concentration at half-maximal activity (AC50) under setting [1] was 0.461 µM [falling, full curve].

Take `COc1ccc(C(=O)n2nc(C)cc2C)cc1OC`: the cell number change is -16.6%.

With `CCOC(=O)Cn1c(=O)oc2cc(S(=O)(=O)NC3CCCCC3)ccc21`, the cell number change was -7.78%.

For `O=C(Nc1ccccc1C(=O)Nc1cccnc1)c1ccccc1`, the cell number change amounted to 78.2%. Also, the AC50 under setting [2] was 10.3 µM [rising, partial curve]. Besides, the AC50 under setting [1] is 0.82 µM [rising, partial curve].

Regarding `CCCn1c(N)cc(=O)n(C)c1=O`, the cell number change was found to be 30.5%.

For `CC(=O)N1CCN(CCS(=O)(=O)c2ccc(Br)cc2)CC1`, the cell number change stood at 7.71%. For the same molecule, the concentration at half-maximal activity (AC50) under setting [1] was 0.731 µM [falling, partial curve, poor fit].

Turning to `O=C(O)c1cc(S(=O)(=O)N2CCCCCC2)c(Cl)cc1Cl`, the cell number change was -0.0641%. Besides, under setting [1], the AC50 is 0.13 µM [falling, full curve, poor fit].

Regarding `CCC(C)NC(=O)CCn1c(-c2ccc(F)cc2)cc(C(C)=O)c1C` (stereo not given), the cell number change was 36.9%.

For the molecule `N#Cc1c(C(F)(F)F)cc(=O)n2c1[nH]c1ccccc12`, the cell number change was -19.5%. Under setting [1], the half-maximal activity concentration (AC50) was 0.58 µM [rising, single point].

Turning to `Cc1csc2nc(COC(=O)CNC(=O)c3ccc(Cl)cc3)cc(=O)n12`, the cell number change turned out to be 3.51%. Moreover, the AC50 under setting [2] was 0.00461 µM [falling, full curve, poor fit]. The AC50 under setting [1] is 0.82 µM [falling, full curve].

As for `CC1(C)NC(=O)N(CC(=O)NNC(=O)c2ccccc2F)C1=O`, the cell number change came to 14.9%. Also, the half-maximal activity concentration (AC50) under setting [2] was 0.146 µM [falling, full curve, poor fit]. Further, under setting [1], the AC50 was 0.146 µM [falling, full curve, poor fit].

Consider `Cc1c(CN2CCC(n3nccc3NC(=O)C3CCOC3)CC2)[nH]c2ccccc12` (stereo not given), for which the cell number change is 33.8%. In addition, the half-maximal activity concentration (AC50) under setting [2] was 0.0731 µM [rising, full curve, poor fit]. Moreover, under setting [1], the concentration at half-maximal activity (AC50) was 0.731 µM [rising, single point].

For the molecule `CC(SCc1ccccc1)C(=O)NC1CCCC1` (stereo not given), the cell number change is -16.2%.

As for `COc1cc2c(cc1OC)-c1nnc(-c3cccs3)n1C1(CCCC1)C2`, the cell number change was found to be 168%. Besides, the half-maximal activity concentration (AC50) under setting [2] was 29.1 µM [rising, single point].

Take `Cc1ccc(O)c(CNc2nc3ccccc3[nH]2)c1`: the cell number change was -13.3%. For the same molecule, the AC50 under setting [1] is 1.46 µM [falling, partial curve].

For the molecule `O=C(c1ccc(Oc2ccccc2)cc1)C1CCCN(C(=O)c2cnccn2)C1` (stereo not given), the cell number change is -0.479%. Moreover, the AC50 under setting [1] was 20.6 µM [falling, single point].

For `CCN(CCNC(=O)C1CCN(Cc2nc(-c3ccc(Cl)cc3)oc2C)CC1)c1ccccc1`, the cell number change is -58.5%. Moreover, the concentration at half-maximal activity (AC50) under setting [2] was 25.9 µM [falling, single point]. Under setting [1], the AC50 is 29.1 µM [falling, single point].

`CC(C)CCN1CCN(Cc2ccc(C(F)(F)F)cc2)CC1CCO` (stereo not given): the cell number change was 6.4%. Moreover, the AC50 under setting [1] is 23.1 µM [rising, single point].

Turning to `COc1ccc(NC(=O)COc2cc(C)cc(C)c2)cc1S(=O)(=O)N1CCCCC1`, the cell number change was determined as 20.8%.

`Cc1nn(C)c(Oc2ccc(Cl)cc2)c1C=O`: the cell number change is 156%. Also, the AC50 under setting [2] was 0.00411 µM [rising, full curve, poor fit]. The half-maximal activity concentration (AC50) under setting [1] is 25.9 µM [rising, partial curve].

With `COc1ccc(C(=O)OCC(=O)N2CCCC2=O)c(OC)c1`, the half-maximal activity concentration (AC50) under setting [2] is 0.58 µM [falling, single point].

Consider `CN(C)C=NC(=O)c1cc(C(=O)c2ccc(C(C)(C)C)cc2)c[nH]1`, for which the cell number change was 2.76%. For the same molecule, under setting [1], the half-maximal activity concentration (AC50) is 0.58 µM [falling, single point].

For `Cc1ccc2[nH]c3c(c2c1)CCCC3NC(=O)CCl` (stereo not given), the cell number change is -25.5%. In addition, the AC50 under setting [1] is 29.1 µM [falling, single point].

For `CC(=O)c1ccc(N2CCN(C(=O)c3ccc(Cl)c(S(=O)(=O)NC4CC4)c3)CC2)c(F)c1`, the cell number change is -32%. For the same molecule, the AC50 under setting [2] was 16.4 µM [falling, partial curve, poor fit]. In addition, under setting [1], the AC50 is 4.11 µM [falling, single point].

For `COc1ccc(C)cc1NC(=O)CN1c2cccc3cccc(c23)S1(=O)=O`, the cell number change was -43.4%. Moreover, the AC50 under setting [2] was 11.6 µM [falling, partial curve, poor fit].

On to `CCOCCCNC(=O)Cn1cnc2c(cnn2-c2ccc(F)cc2)c1=O`, for which the cell number change came out at 11.1%. The AC50 under setting [1] is 10.3 µM [rising, partial curve].

Take `Cc1cccc(NC(=O)CC23CC4CC(C2)CC(n2nnc(C)n2)(C4)C3)c1`: the cell number change was -12.7%. In addition, under setting [1], the AC50 was 0.291 µM [falling, full curve, poor fit].

In the case of `Fc1ccc(Br)cc1C1C=C(c2ccc(Br)s2)Nc2ncnn21` (stereo not given), the cell number change came out at 76%. Under setting [2], the AC50 is 29.1 µM [rising, single point]. In addition, under setting [1], the AC50 was 0.13 µM [rising, full curve, poor fit].

With `Cn1c(CNC(=O)CCNC(=O)c2ccc(Br)cc2)cc(=O)n(C)c1=O`, the cell number change is -3.54%. The concentration at half-maximal activity (AC50) under setting [1] is 0.58 µM [falling, single point].

In the case of `Cc1ccccc1Nc1ncnc2c1cnn2Cc1ccccc1`, the cell number change was -20.2%. Besides, under setting [1], the AC50 is 29.1 µM [falling, single point].

Consider `CC1=NN(c2cccc(Cl)c2)C(=O)C12CC(C)=C(C)CS2` (stereo not given), for which the cell number change was determined as 110%. Further, under setting [2], the concentration at half-maximal activity (AC50) is 18.4 µM [rising, partial curve]. In addition, under setting [1], the concentration at half-maximal activity (AC50) is 1.64 µM [rising, partial curve].

`c1ccc(-c2nc[nH]c2-c2ccccc2)cc1`: the cell number change was 3.09% and 23.6%. The AC50 under setting [1] is 206 nM [rising, full curve] and 18.4 µM [rising, single point].

As to `COc1ccc(C)cc1-n1nnnc1SCc1nc2ccccc2s1`, the cell number change was -28.4%. The AC50 under setting [1] was 9.2 µM [falling, partial curve].

`COc1ccc(/C=N/NC(=O)c2cccc([N+](=O)[O-])c2)cc1OC(=O)c1ccccc1`: the cell number change was 3.72%. The half-maximal activity concentration (AC50) under setting [2] was 0.291 µM [rising, full curve, poor fit]. For the same molecule, the concentration at half-maximal activity (AC50) under setting [1] was 2.59 µM [rising, partial curve].

Take `O=C(NCCc1c[nH]c2ccccc12)c1ccc(S(=O)(=O)NCc2ccco2)cc1`: the cell number change was -74%. In addition, the half-maximal activity concentration (AC50) under setting [1] is 29.1 µM [falling, single point].

For `COc1cccc(NC(=O)COc2coc(CN3CCN(c4ccccc4)CC3)cc2=O)c1`, the cell number change stood at 10.3%.

For `O=C(Nc1cccc(C(F)(F)F)c1)c1cc2c(s1)-c1ccccc1OC2`, the cell number change was -14.7%. Moreover, under setting [1], the AC50 is 29.1 µM [falling, single point].

For `CC(C)c1nc(SCC(=O)Nc2cccc(S(N)(=O)=O)c2)n[nH]1`, the cell number change is -37.1%. The AC50 under setting [2] is 29.1 µM [falling, single point].

As for `Cc1ccc(NC(=O)Nc2cccc(Cl)c2)c(C(=O)O)c1`, the cell number change is -45.8%. Moreover, the concentration at half-maximal activity (AC50) under setting [2] was 29.1 µM [falling, single point].

Turning to `CCN(CC)CCN(C(=O)c1ccc(N2C(=O)CCC2=O)cc1)c1nc2cc3c(cc2s1)OCO3`, the cell number change was -54.1%. Besides, the concentration at half-maximal activity (AC50) under setting [2] was 2.91 µM [falling, partial curve, poor fit]. Further, the concentration at half-maximal activity (AC50) under setting [1] is 0.0517 µM [falling, full curve, poor fit].

Take `Cn1cc([N+](=O)[O-])c(C(=O)NCc2ccco2)n1`: the cell number change amounted to 11.2%.

On to `Cn1cnc2c1c(=O)n(Cc1c(Cl)cccc1Cl)c(=O)n2C`, for which the cell number change is -7.43%.

On to `O=C(CSc1nnc(-c2cccs2)n1-c1ccccc1)NCC1CCCO1` (stereo not given), for which the cell number change turned out to be 11.4%. Also, the AC50 under setting [1] is 29.1 µM [rising, single point].

Take `Cn1c(=O)c(C(=O)CN2CCCCCC2)c(N)n(Cc2ccccc2)c1=O`: the cell number change was -1.29%. For the same molecule, under setting [2], the AC50 was 0.082 µM [falling, full curve]. The half-maximal activity concentration (AC50) under setting [1] was 0.116 µM [falling, full curve].

Regarding `COc1cc(C(=O)NCC2(N(C)C)CCCCC2)ccc1OCc1ccccc1`, the cell number change turned out to be 34.2%. For the same molecule, under setting [2], the AC50 is 7.31 µM [rising, partial curve, poor fit]. Also, the AC50 under setting [1] is 16.4 µM [rising, partial curve].

The values above are taken from PubChem BioAssay AID2685 (National Center for Advancing Translational Sciences (NCATS), 2010).
